This note sets out measurements from patent US12331019B2, “Modified amino acid derivatives for the treatment of neurological diseases and selected psychiatric disorders” (Uniwersytet Jagiellonski, priority 2019, dated 2025).

SMILES strings stand for the structures.

The series has as its system Swiss albino mice (CD-1). The series can be described thus: maximal electroshock seizure test (MES). Format: in vivo, mouse. Conditions: i.p., CD-1 mice. A general note: In the maximal electroshock model the usual endpoint is tonic extension of the hind limbs.

`C[C@H](C(=O)NCc1ccccc1F)N1C(=O)CCC1=O` [Compound 2, (2R)-2-(2,5-dioxopyrrolidin-1-yl)-N-(2-fluorobenzyl)propanamide]: the “PI TD50/ED50 (MES)” value was 9.0 (MES).
With `CCCC(CCC)C(=O)O` [VPA, valproic acid, reference compound] the figure was 1.7 (MES).
